In patent publication US20230279141A1 (MINERVA BIOTECHNOLOGIES, published 2023) one finds binding data, which are given here for one substance.

Protein sequences, listed by entry. Tags and fused reporters are not part of them. Lines headed by an entry give the natural chain unless they say otherwise; changes in a name come on top. Residues count along the entry.
UniProt P15941, residues 1110-1255: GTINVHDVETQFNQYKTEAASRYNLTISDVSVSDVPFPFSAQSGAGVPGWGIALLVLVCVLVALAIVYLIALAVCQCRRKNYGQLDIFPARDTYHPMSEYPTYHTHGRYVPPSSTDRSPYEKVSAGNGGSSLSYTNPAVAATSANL
UniProt Q9Y5B8: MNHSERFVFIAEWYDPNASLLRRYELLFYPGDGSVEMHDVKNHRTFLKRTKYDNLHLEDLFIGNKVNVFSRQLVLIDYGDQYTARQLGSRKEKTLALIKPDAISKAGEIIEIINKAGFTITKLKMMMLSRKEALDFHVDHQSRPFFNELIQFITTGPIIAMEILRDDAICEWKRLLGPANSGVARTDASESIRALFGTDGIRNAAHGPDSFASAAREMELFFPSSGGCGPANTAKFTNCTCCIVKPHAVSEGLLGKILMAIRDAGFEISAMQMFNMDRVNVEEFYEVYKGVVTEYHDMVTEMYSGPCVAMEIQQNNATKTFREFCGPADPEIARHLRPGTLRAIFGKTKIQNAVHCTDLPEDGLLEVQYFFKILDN

These are yes or no findings as the source states them, for the method shown. Some results given as binding are weak or reduced against the parent protein; the word gives no strength.

Assay [1] concerns the target MUC1* growth factor receptor (human) (UniProt P15941). The assay is described as follows: pull-down assays, ELISAs and nanoparticle binding experiments.
Assay [2] shares this target. Briefly: ELISA of FIG. 1 is cited.

Regarding “recombinant human NME7-AB (from UniProt Q9Y5B8 92-376) (ligand)”, the binding result in assay [1] and in assay [2] was “binds” throughout.
